Values quoted from earlier work in patent US4470980A, “Method of increasing oral absorption of β-lactam antibiotics” (priority 1981, dated 1984).

Details: oral; prior art; cited from earlier work

SMILES: CC1=C(C(=O)O)N2C(=O)[C@@H](NC(=O)[C@H](N)c3ccccc3)[C@H]2SC1 [cephalexin]
- absorbed: greater than 80%
